The campaign covered roughly 360,000 compounds. About 9,100 (2.5%) were called active. Inconclusive results, whose numbers are uncertain, are shown with a selection of clear calls. No stated cut-off is given here; in the data, active means max response below about -50%; inconclusive means no clear call, values can overlap the other calls; inactive means above that.
What follows are molecules tested against D(3) dopamine receptor (Homo sapiens) (UniProt P35462) (assay: qHTS of D3 Dopamine Receptor Antagonist: qHTS). Conditions: D3R cells, DiscoveRx beta-arrestin luminescence, antagonist mode; hits give low values.
Outline: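 Cells plated overnight at 1500 cells/well, then exposed to library compounds with dopamine controls for 90 minutes at 37 degrees C. DiscoveRx reagent added for 30–60 minutes at room temperature; luminescence read, quantitative HTS format.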
On the % scale 0 is the no-effect control and ±100 the full control effect.

The chains behind the UniProt entries cited, without tags or fusion partners.
UniProt P35462, whole entry, looked up: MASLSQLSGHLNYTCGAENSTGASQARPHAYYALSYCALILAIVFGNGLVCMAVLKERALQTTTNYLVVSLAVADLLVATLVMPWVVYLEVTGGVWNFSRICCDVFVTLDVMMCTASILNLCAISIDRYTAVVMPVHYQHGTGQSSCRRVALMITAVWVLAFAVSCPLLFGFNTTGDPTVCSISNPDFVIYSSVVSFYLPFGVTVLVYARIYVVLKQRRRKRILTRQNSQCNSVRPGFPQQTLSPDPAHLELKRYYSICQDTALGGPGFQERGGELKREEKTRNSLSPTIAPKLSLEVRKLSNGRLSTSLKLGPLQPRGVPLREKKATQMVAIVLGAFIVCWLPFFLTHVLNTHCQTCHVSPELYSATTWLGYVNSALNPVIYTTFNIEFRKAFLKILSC

Structure (SMILES) | max response, negative = inhibition
OCCCn1c(C(CO)Nc2nc(-c3ccc(Cl)cc3)cs2)nc2ccccc21 (stereo unspecified) | inconclusive: -43.2%
CCN(CC)CCNC(=O)CCc1c(C)nc2c(c(C)nn2-c2ccc(C)cc2)c1C | active: -50.3%
Cc1cc(NC(=O)CCNS(=O)(=O)c2cc(Br)cnc2N)ccc1Br | active: -51.4%
OCC(C#CCN1CCCCC1)NCc1ccccc1 (stereo unspecified) | inconclusive: -46%
CC1=CC(C)(C)N(C(=O)CNC2CCCC2)c2cc(C)ccc21 | inconclusive: -31.1%
COc1ccc(OC)c(-n2c(-c3cccc(S(=O)(=O)N(C)C)c3)n[nH]c2=S)c1 | inactive: -25.3%
CCCCC(CC)C(=O)Oc1ccc(O)c(C(C)(C)C)c1 (stereo unspecified) | inactive: 9.35%
COc1ccc(C(=O)C(CCC(CNC(C)(C)C)C(=O)c2ccc(OC)cc2)CNC(C)(C)C)cc1 (stereo unspecified) | active: -55%
CC1(C(=O)NS(=O)(=O)c2cccc(OC(F)F)c2)CCN1C(=O)Cc1ccsc1 (stereo unspecified) | inconclusive: -35.4%
CN1/C(=C/C=C(C#N)C#N)C=Cc2ccccc21 | inconclusive: -34.6%
C[C@H](CO)N1C[C@H](C)[C@@H](CN(C)Cc2ccc(-c3ccccc3)cc2)Oc2c(NS(=O)(=O)c3ccccc3)cccc2C1=O | inactive: -4.13%
O=C(CN(C(=O)c1csnn1)c1cccc(C(F)(F)F)c1)NC1CCCC1 | inactive: 7.01%
COc1cccc(-c2nc(CS(=O)(=O)CC(=O)NC3CCCc4ccccc43)c(C)o2)c1 (stereo unspecified) | inactive: 29.1%
O=C(CC(=O)NC1CCCCC1)N/N=C/c1cccc2ccccc12 | inconclusive: -30.4%
Cc1cc(Cl)cc(C)c1OCCCCN1CCOCC1 | active: -57.5%
CC(C)(C)c1ccc(S(=O)(=O)/N=C2\C=C(NS(=O)(=O)c3ccccc3)C(=O)c3ccccc32)cc1 | inconclusive: -32.3%
CC(C)OCCCNc1ncc2c(n1)CC(c1ccc(N(C)C)cc1)CC2=O (stereo unspecified) | inconclusive: -37.5%
O=C(c1cc2cc(F)ccc2[nH]1)N1CCN(Cc2ccc3c(c2)OCO3)CC1 | active: -86.4%
CC(C)c1nnc(SCC(=O)NCCC2=CCCCC2)n1N | inconclusive: -40.4%
CCOC(=O)COc1cc(N)c(Cl)cc1Cl | inconclusive: -31.6%
Cc1c(-c2ccc(F)cc2)[n+](=O)c(-c2ccc(F)cc2)c(C)n1[O-] | inconclusive: -37%
CCOC(=O)c1c(NC(=O)CN2C(=O)NC3(CCCCC3)C2=O)sc(C)c1-c1ccc(C)cc1 | inconclusive: -30.9%

Structure (SMILES) | max response, negative = inhibition
CC(=O)c1ccc(C#CC(C)(C)O)s1 | inconclusive: -35.1%
O=C(NC(c1ccc(F)cc1)c1ccc2ccccc2n1)C1CCN(CCOc2ccc(F)cc2)CC1 (stereo unspecified) | inconclusive: -49.1%
CCN(CC(=O)NCc1ccc(F)cc1)CC(=O)Nc1ccc(Br)cc1F | inconclusive: -33.7%
Cc1ccc(CN2CCN(Cc3cn(C)nc3-c3ccccc3)CC2CCO)o1 (stereo unspecified) | inactive: 3.14%
CC1CCN(C(=O)c2[nH]cnc2C(=O)NCc2ccc(CNC(=O)OC(C)(C)C)cc2)CC1 | inactive: 18%
Cc1ccccc1CSCC(=O)Nc1ccccc1-c1ccccc1 | inactive: -0.135%
CC(C)(C)c1ccc(C(=O)CSc2ncn[nH]2)cc1 | inconclusive: -37.4%
CCOc1ccc(-c2nnc3ccc(SCC(=O)Nc4nc5ccc(C)cc5s4)nn23)cc1 | inactive: 3.37%
O=C(NC1=C(NC2CCS(=O)(=O)C2)C(=O)c2ccccc2C1=O)c1ccccc1 (stereo unspecified) | inconclusive: -45.6%
COc1cccc(CN(C)C(c2ccccc2)c2ccccc2)c1OC | active: -50.5%
COc1ccc2nc(/N=C\N(C)C)sc2c1 | inconclusive: -32.9%
Cc1ccnc2nc(NC(=O)c3ccco3)nn12 | active: -66.1%
O=C(NNC1CC(c2ccccc2)=NN1C(=O)c1ccccc1)c1ccccc1 (stereo unspecified) | inactive: 9.11%
O=C(CSc1nnc(Nc2ccccc2)s1)Nc1cccnc1Cl | inconclusive: -34.2%
CCc1ccccc1NC(=O)NC1CC2CCC(C1)N2Cc1cccs1 (stereo unspecified) | active: -54.3%
CCOc1ccccc1NC(=O)CSc1nc2ccccc2c(=O)n1CC1CCCO1 (stereo unspecified) | inconclusive: -41.5%
CC1CCN(C(=O)Cn2c(=O)n(CCc3ccccc3)c(=O)c3ccccc32)CC1 | inconclusive: -39.8%
C[C@H]1CN([C@@H](C)CO)S(=O)(=O)c2ccc(/C=C/c3ccccc3)cc2O[C@H]1CN(C)C(=O)NC1CCCCC1 | inconclusive: -39.5%
O=C(NCCCN1CCC(Cc2ccccc2)CC1)C1CC(=O)N(C2CCCCCC2)C1 (stereo unspecified) | inconclusive: -38.2%
CCc1nnc(NC(=O)CSc2sc3c(O)cc(=O)[nH]c3c2C#N)s1 | inactive: -11.7%
CCOC(=O)N1CCN(C(=O)COC(=O)c2ccc(O)cc2O)CC1 | inconclusive: -33.5%
Cc1nn(CC(=O)Nc2ccncc2)c(C)c1[N+](=O)[O-] | inconclusive: -31%

Given as comma-separated lines: 15 of the compounds above
Structure (SMILES),"max response, negative = inhibition"
CCN(CC)CCNC(=O)CCc1c(C)nc2c(c(C)nn2-c2ccc(C)cc2)c1C,active: -50.3%
Cc1cc(NC(=O)CCNS(=O)(=O)c2cc(Br)cnc2N)ccc1Br,active: -51.4%
OCC(C#CCN1CCCCC1)NCc1ccccc1 (stereo unspecified),inconclusive: -46%
CC1=CC(C)(C)N(C(=O)CNC2CCCC2)c2cc(C)ccc21,inconclusive: -31.1%
COc1ccc(OC)c(-n2c(-c3cccc(S(=O)(=O)N(C)C)c3)n[nH]c2=S)c1,inactive: -25.3%
CCCCC(CC)C(=O)Oc1ccc(O)c(C(C)(C)C)c1 (stereo unspecified),inactive: 9.35%
COc1ccc(C(=O)C(CCC(CNC(C)(C)C)C(=O)c2ccc(OC)cc2)CNC(C)(C)C)cc1 (stereo unspecified),active: -55%
CC1(C(=O)NS(=O)(=O)c2cccc(OC(F)F)c2)CCN1C(=O)Cc1ccsc1 (stereo unspecified),inconclusive: -35.4%
CN1/C(=C/C=C(C#N)C#N)C=Cc2ccccc21,inconclusive: -34.6%
C[C@H](CO)N1C[C@H](C)[C@@H](CN(C)Cc2ccc(-c3ccccc3)cc2)Oc2c(NS(=O)(=O)c3ccccc3)cccc2C1=O,inactive: -4.13%
O=C(CN(C(=O)c1csnn1)c1cccc(C(F)(F)F)c1)NC1CCCC1,inactive: 7.01%
COc1cccc(-c2nc(CS(=O)(=O)CC(=O)NC3CCCc4ccccc43)c(C)o2)c1 (stereo unspecified),inactive: 29.1%
O=C(CC(=O)NC1CCCCC1)N/N=C/c1cccc2ccccc12,inconclusive: -30.4%
Cc1cc(Cl)cc(C)c1OCCCCN1CCOCC1,active: -57.5%
CC(C)(C)c1ccc(S(=O)(=O)/N=C2\C=C(NS(=O)(=O)c3ccccc3)C(=O)c3ccccc32)cc1,inconclusive: -32.3%

Next part.

Structure (SMILES) | max response, negative = inhibition
CCC(c1nnnn1-c1ccc2c(c1)OCCO2)N1CCN(C/C=C/c2ccccc2)CC1 (stereo unspecified) | inactive: -15.5%
COc1cccc(OC)c1OCCCCCCN1CCN(C)CC1 | inactive: 3.99%
Brc1ccc(CNc2nc3ccccc3n2CCN2CCCCC2)cc1 | inconclusive: -49.9%
CCCOc1ccc(C(=O)NNC(=S)NC(=O)c2cc(-c3ccc(Cl)cc3)nc3ccccc23)cc1 | active: -50.3%
CCOc1ccc(S(=O)(=O)Nc2ccccc2SC)cc1 | active: -64.6%
O=C(O)c1ccccc1C(=O)Nc1ccc(-n2ccc(C(F)(F)F)n2)cc1 | inactive: 0.799%
CCOc1ccccc1NC(=O)CSc1nnnn1Cc1ccccc1 | active: -58.8%
CC1CCN(S(=O)(=O)c2ccc3[nH]cc(C(=O)NCCN4CCOCC4)c(=O)c3c2)CC1 | inconclusive: -32.3%
CSc1nnc(-c2ccco2)c(-c2ccco2)n1 | inconclusive: -44.6%
CC(=O)CC(=O)Nc1ccc(Nc2ccccc2)cc1 | inconclusive: -35.4%
Cc1cc(C(=O)CSc2nc3ccccc3o2)c(C)n1C1CC1 | inactive: 3.82%
COc1ccc(-n2c(C)c([N+](=O)[O-])c3ccc(O)c(CN4CCCCC4)c32)cc1 | inconclusive: -36.6%
CCCn1c2ccc(F)cc2c2nnc(SCCN3CCCCC3)nc21 | inconclusive: -30.1%
COc1ccc(CS(=O)/C(Cl)=C(/Cl)C(=O)Nc2ccc(OC)nc2)cc1 (stereo unspecified) | active: -91.9%
Cc1ccccc1C1c2[nH]c3ccccc3c2C[C@H]2C(=O)N(c3ccccc3C(=O)NCCCN3CCOCC3)C(=O)N12 (stereo partly specified) | inactive: 73%
Cn1c(N)c(C(=O)COC(=O)C2CC(=O)N(Cc3ccccc3)C2)c(=O)n(C)c1=O (stereo unspecified) | inconclusive: -30.3%
Cc1ccccc1-n1c(=S)[nH]c2nc3c(cc2c1=O)COC(C)(C)C3 | inconclusive: -43.5%
CN1CCN(CCCNC(=O)CCC(=O)N2CCOc3ccccc32)CC1 | inactive: 5.13%
CC(=O)c1ccc(N2CCN(C(=O)CCS(=O)(=O)c3ccc(C)cc3)CC2)cc1 | inactive: 0%
Cc1ccccc1NC(=O)Cc1nc(COC(=O)c2ccc(S(C)(=O)=O)c([N+](=O)[O-])c2)cs1 | active: -72.8%
Cc1cccc(C(=O)Nc2sc(C(=O)N3CCCC3)c(C)c2C#N)c1 | inconclusive: -41.6%
Cc1ccc2ccccc2c1C(O)c1ncc(-c2ccc(Cl)cc2)[nH]1 (stereo unspecified) | inactive: -12.9%

Structure (SMILES) | max response, negative = inhibition
COc1ccc(C(c2nnnn2-c2ccc3c(c2)OCCO3)N2CCN(C/C=C/c3ccccc3)CC2)cc1 (stereo unspecified) | active: -75.7%
CC(=O)Nc1ccc(/C=C/c2noc(-c3ccccc3O)n2)cc1 | inconclusive: -31.6%
CSCCC(C(=O)Nc1c(C)cccc1C)N1CCC(Cc2ccccc2)CC1 (stereo unspecified) | inconclusive: -37.6%
COC(=O)C1=NN(C(=O)c2ccc(C)cc2)C(O)(c2ccc(Cl)cc2)C1 (stereo unspecified) | inconclusive: -36.6%
Cc1ccc(S(=O)(=O)n2nc(OC(=O)c3c(F)cccc3Cl)cc2N)cc1 | inconclusive: -34.3%
O=[N+]([O-])c1ccc(COc2cccc(CNc3ccc(F)cc3)c2)cc1 | inconclusive: -31.8%
CCN(CC)c1ccc(/C=N/N2CCN(Cc3ccc(C)cc3)CC2)c(O)c1 | active: -59.5%
O=C(COC(=O)CCOc1ccccc1)Nc1ncc(Cl)cc1Cl | inactive: 6.13%
O=[N+]([O-])c1ccccc1-c1ccc(C(=S)N2CCCC2)o1 | inconclusive: -32.3%
O=C(CN1CCCCCC1)N1c2ccccc2C=Cc2ccccc21 | inconclusive: -33.1%
COc1cc(-c2nc3ccc(C)cn3c2NCc2ccccc2)ccc1-c1cccc(Cl)c1 | inactive: 43.6%
NC(=O)c1sc2nc3c(c(-c4cccnc4)c2c1N)CCC3 | inactive: 12.5%
C=CCOc1c(Br)cc(/C=N/n2c(CC)n[nH]c2=S)cc1Br | inconclusive: -36.8%
Cc1csc(C(C#N)C(=O)c2ccc(S(=O)(=O)N3CCCC3)cc2)n1 (stereo unspecified) | inconclusive: -30.7%
CCN(CC)S(=O)(=O)c1cc([N+](=O)[O-])ccc1NNC(=O)Nc1ccc(F)cc1 | active: -72.4%
OC(CCCCN1CCCCC1)c1ccccc1 (stereo unspecified) | inconclusive: -32.2%
Cc1nn(Cc2n[nH]c(=S)n2Cc2ccccc2)c(C)c1Cl | active: -87.3%
CC1CN(C(=O)COC(=O)c2nn(-c3ccccc3)c(=O)c3ccccc23)CC(C)O1 (stereo unspecified) | inactive: 5.45%
CCc1nnc(NC(=O)c2cccc(S(=O)(=O)N3CCCC3)c2)s1 | inactive: -1.8%
COc1ccc(C(C)=O)cc1CC1(C)C(=O)Nc2ccc(OC(F)(F)F)cc21 (stereo unspecified) | inconclusive: -38.5%
